{"source": "patent US9447466B2", "about": "(NIPPON ZOKI PHARMACEUTICAL CO., LTD., priority 2010, dated 2016)", "key": {"BDNF": {"tested_on": "BDNF", "assay": "Pharmacological Test 6: influence of intracellular signaling inhibitors on BDNF expression", "type": "cell-based, human", "settings": "SH-SY5Y cells; test substance 10 mNU/mL 24 hours; PD98059 10 μM, LY 294002 15 μM or SB 203580 0.5 μM added 30 minutes before completion; FIG. 7", "description": "PD98059 (MEK inhibitor, 10 μM), LY 294002 (PI-3K inhibitor, 15 μM) or SB 203580 (p38 MAPK inhibitor, 0.5 μM) dissolved in a medium was added to a cultured product 30 minutes before completion of the cultivation. After that, the same as in the above Pharmacological Test 1, the extracted total RNA was subjected to a semi-quantitative RT-PCT, the PCR product was separated by agarose gel electrophoresis and the bands of BDNF and cyclophilin were visually detected."}, "Akt": {"tested_on": "Akt", "assay": "Inhibition of phosphorylation of Akt by PI3K inhibitor", "type": "cell-based"}}, "note": "For at least one compound, name, drawing or mass did not settle the structure."}
{"compound": "O=c1cc(N2CCOCC2)oc2c(-c3ccccc3)cccc12", "note": "[LY294002]", "values": [{"measurement": "enhancement of BDNF expression by the test substance in presence of inhibitor", "setting": "BDNF", "result": "suppressed"}, {"measurement": "phosphorylation of Akt", "setting": "Akt", "result": "inhibited"}]}
